Laboratory results reported in patent US20100008980A1, “Use of MAGE A3-Protein D Fusion Antigen in Immunotherapy Combined with Surgery, Chemotherapy or Radiotherapy for the Treatment of Cancer” (priority 2007, published 2010).
For at least one compound, name, drawing or mass did not settle the structure.

What was measured:
[1] = system: CD4-CD8 T cells, B cells or NK cells; test: Cell subpopulations (CD4, CD8, B, NK) by extracellular staining and FACS; format: in vivo, CB6F1 mice; conditions: spleen or PBL; 1, 7 or 14 days after the last dexamethasone injection
TC1-MAGE3 cells = test: Tumor protection against challenge with TC1-MAGE3 cells after immunization +/- dexamethasone; format: in vivo, mice; conditions: FIG. 24
MAGE-A3 = conditions: 3 independent experiments; spleen and PBL
lymphocytes = test: Total lymphocyte count in spleen and PBL after dexamethasone +/- ASCI; format: in vivo, CB6F1 mice; conditions: for total lymphocyte count in the spleen: dexamethasone 10 to 50 mg/kg

C[C@@H]1C[C@H]2[C@@H]3CCC4=CC(=O)C=C[C@]4(C)[C@@]3(F)[C@@H](O)C[C@]2(C)[C@@]1(O)C(=O)CO [Dexamethasone]
relative % of CD4-CD8 T cells, B cells or NK cells [1]: no change | tumor development / protection after tumor challenge (TC1-MAGE3 cells; 10e6 TC1-MAGE3 cells 2 weeks after last immunization, groups of 11 mice): develop a tumor | impact of pre-treatment on the tumor protection by ASCI (TC1-MAGE3 cells; dexamethasone before each ASCI injection): no major impact on the tumor protection | impact on the ability of the ASCI to induce T cells which produce cytokines (MAGE-A3): no major negative impact | recovery of the lymphocyte count in PBL (lymphocytes; 14 days after the second ASCI (18 days after the last injection of Dexamethasone)): slower in PBL and is not complete | total lymphocyte count in the spleen (lymphocytes; 7 and 14 days after the ASCI): the lymphocyte count has recovered | total lymphocyte count in the spleen (lymphocytes; one day after the ASCI injection): decrease of the total lymphocyte count
